The results in this text go back to patent publication US12582637B2, “Topical formulation for intradermal application and uses thereof” (Arctic Therapeutics hf, priority 2018, dated 2026).

For the data set the following is noted: F34 vs F20, FIGS. 4-6.

`COc1cc2c(cc1OC)C(=O)C(CC1CCN(Cc3ccccc3)CC1)C2` (stereo not shown) [Donepezil base]: the “crossing the skin, donepezil base versus donepezil HCL” value is “tended to cross the skin more readily”.
